Primary screen of a compound library

Protein sequences, listed by entry. Tags and fused reporters are not part of them.
UniProt E9BF75, entry or part of it: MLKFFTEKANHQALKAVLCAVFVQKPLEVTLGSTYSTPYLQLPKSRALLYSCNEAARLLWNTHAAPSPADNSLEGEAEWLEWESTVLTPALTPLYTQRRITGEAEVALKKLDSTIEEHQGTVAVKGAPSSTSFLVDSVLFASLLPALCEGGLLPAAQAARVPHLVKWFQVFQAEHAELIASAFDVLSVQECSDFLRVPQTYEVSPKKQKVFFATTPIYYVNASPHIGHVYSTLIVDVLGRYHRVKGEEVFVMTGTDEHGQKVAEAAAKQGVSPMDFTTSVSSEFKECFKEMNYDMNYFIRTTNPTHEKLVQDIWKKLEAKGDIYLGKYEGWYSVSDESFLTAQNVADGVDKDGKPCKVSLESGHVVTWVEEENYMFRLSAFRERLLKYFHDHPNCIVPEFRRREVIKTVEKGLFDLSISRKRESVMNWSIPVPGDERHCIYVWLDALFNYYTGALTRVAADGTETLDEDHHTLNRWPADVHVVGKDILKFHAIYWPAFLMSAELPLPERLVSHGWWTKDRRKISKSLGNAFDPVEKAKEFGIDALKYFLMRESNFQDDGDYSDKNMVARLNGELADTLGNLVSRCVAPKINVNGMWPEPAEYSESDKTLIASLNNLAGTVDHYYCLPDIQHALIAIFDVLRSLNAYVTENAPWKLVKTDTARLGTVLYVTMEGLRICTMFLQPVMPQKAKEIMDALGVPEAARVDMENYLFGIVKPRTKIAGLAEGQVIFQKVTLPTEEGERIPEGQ

Measurements from “University of Dundee, Small-Polar-MMV Screening Library” (2021), ChEMBL document CHEMBL3988442.

Results are percentages, as filed.
How 0% and 100% were set is not recorded. Most values in the screen are low, and negative values occur.
The compounds are a random part of those screened.

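Primary screen of methionyl-tRNA synthetase; the read-out is not stated. Target: Methionyl-tRNA synthetase (putative), Leishmania donovani (UniProt E9BF75). The test concentration is not given. Values are per cent inhibition. Of about 68,000 compounds tested this way, about 24 (0.035%) reached 50% or more in at least one test.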

* O=C(NCc1ccccc1)C1CN(c2ccccn2)CCO1 (stereo unspecified) | 16.46%
* CC(C)(C)OC(=O)Cn1cccc(S(=O)(=O)N2CCCC2)c1=O | 8.042%
* c1cnc(NC[C@@H]2CCC[C@@H]3CN(Cc4csnn4)C[C@@H]32)nc1 | 11.34%
* Cn1ccnc1CN1CCCC(CCCc2ccccn2)(C(N)=O)C1 (stereo unspecified) | 14.89%
* CC1CN(CC(=O)NC(C2CC2)C2CC2)CCN1Cc1nccn1C (stereo unspecified) | 17.46%
* CCOCCN1CCC(c2cncc(C)n2)CC1 | 4.984%
* O=C(NCc1cccc2cccnc12)N1CCC(n2cncn2)CC1 | 20.14%
* c1ccc(-c2noc(CCNC3CCOC4(CCOCC4)C3)n2)nc1 (stereo unspecified) | 14.01%
* CC(=O)N[C@@H](CC(C)C)C(=O)N1CCC(n2cc(C(C)(C)N)nn2)CC1 | 11.17%
* CC(=O)N1CCN(Cc2ccc3c(c2)OCCO3)CC(O)C1 (stereo unspecified) | 8.04%
* CC(C)NC(=O)NCC(Cc1ccc(F)cc1)C(N)=O (stereo unspecified) | 5.634%
* CNC(=O)c1cn[nH]c1C1CCN(Cc2ccccc2F)C1 (stereo unspecified) | 14.19%
* CC(C)N(CC1CCCN(CC(N)=O)C1)C(=O)OC(C)(C)C (stereo unspecified) | 7.754%
* COc1cccc(CN(C)S(=O)(=O)N2CCOCC2)c1 | 16.2%
* Cc1ccc(N2CCCC(NCC3=Cc4ccccc4OC3)C2)nn1 (stereo unspecified) | 19.33%
* CNC(=O)c1cn[nH]c1C1CCCN1C(=O)c1ccccn1 (stereo unspecified) | 13.65%
* O=C(N1CCCO1)[C@@]12CCO[C@@H]1CCN(Cc1ccccc1)C2 | 17.99%
* C/C=C(\C)CN1C[C@H](NC(=O)CCOC)[C@@H](c2ccc(C)o2)C1 | -2.88%
* CN(C)C(=O)CN1C[C@@H]2CC[C@H](C1)N(Cc1ccccc1C#N)C2 | 15.27%
* Cn1c(=O)oc2ccc(NC(=O)N3CCSCC3)cc21 | 5.319%
* CNS(=O)(=O)c1c(C)sc2ccccc12 | 11.02%
* CCC(=O)N1CCC(c2nc(N3CCCCC3)ncc2S(C)(=O)=O)CC1 | 17.3%
* Cc1ncc(CNc2ccc(C(=O)NCc3ccco3)cc2C)s1 | 9.235%
* CCC(CNS(=O)(=O)c1cccc(C(=O)OC)c1)N1CCCC1 (stereo unspecified) | 12.15%
* CN(Cc1nc(Cc2cccc(F)c2)no1)C1CCOCC1 | 12.27%
* CCc1nnc2n1CCN(Cc1csc(Cc3ccccc3)n1)C2 | 16.67%
* CN(CC1(O)CCCN(CCC2CCCCC2)C1=O)C1CCOCC1 (stereo unspecified) | 15.61%
* Cc1cc(C2CCCN(C(=O)COc3cc(C)on3)C2)n[nH]1 (stereo unspecified) | 3.757%
* CC(Oc1ccc2c(c1)OCO2)C(=O)N1CCC(c2ncc[nH]2)CC1 (stereo unspecified) | 15.18%
* CN1CCOCC2(CCCN(C(=O)c3cnccn3)C2)C1 (stereo unspecified) | 4%
* Cc1ccc(C(=O)N2CCc3c(CN4CCCC4)nn(C)c3C2)cc1C | 5%
* CN1CCCC(C(=O)N2CCC(Oc3ccc(C#N)cn3)CC2)C1 (stereo unspecified) | 12.24%
* Cc1cc(CC(=O)N(CC2CN(C)CCO2)c2nccs2)no1 (stereo unspecified) | 6.032%

The last 3 entries again:

For Cc1ccc(C(=O)N2CCc3c(CN4CCCC4)nn(C)c3C2)cc1C the result was 5%.
For CN1CCCC(C(=O)N2CCC(Oc3ccc(C#N)cn3)CC2)C1 (stereo unspecified) the result was 12.24%.
For Cc1cc(CC(=O)N(CC2CN(C)CCO2)c2nccs2)no1 (stereo unspecified) the result was 6.032%.